No constants are given. Whether binding was seen depends on the method and setting. In cells and extracts the contact can be indirect. Some results given as binding are weak or reduced against the parent protein; the word gives no strength.
How the values were obtained:
[1] = molecular target: T1, TMEM43 (endogenous, mouse brain) (mouse (endogenous in mouse brain)) (UniProt Q9DBS1); experiment: co-IP
T1 sequence: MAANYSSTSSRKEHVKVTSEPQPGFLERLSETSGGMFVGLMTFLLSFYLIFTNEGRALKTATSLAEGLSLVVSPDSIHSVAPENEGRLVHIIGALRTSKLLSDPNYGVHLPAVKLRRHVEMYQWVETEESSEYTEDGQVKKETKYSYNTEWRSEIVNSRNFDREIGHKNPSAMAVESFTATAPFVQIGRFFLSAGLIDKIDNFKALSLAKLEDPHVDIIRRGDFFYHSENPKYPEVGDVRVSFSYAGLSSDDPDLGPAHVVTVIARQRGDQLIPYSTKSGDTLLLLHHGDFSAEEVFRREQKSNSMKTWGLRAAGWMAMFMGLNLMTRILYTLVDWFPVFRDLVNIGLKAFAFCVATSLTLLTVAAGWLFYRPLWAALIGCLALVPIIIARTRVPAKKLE

Amino acid sequences for entries named in this document (tags omitted).
UniProt P23242: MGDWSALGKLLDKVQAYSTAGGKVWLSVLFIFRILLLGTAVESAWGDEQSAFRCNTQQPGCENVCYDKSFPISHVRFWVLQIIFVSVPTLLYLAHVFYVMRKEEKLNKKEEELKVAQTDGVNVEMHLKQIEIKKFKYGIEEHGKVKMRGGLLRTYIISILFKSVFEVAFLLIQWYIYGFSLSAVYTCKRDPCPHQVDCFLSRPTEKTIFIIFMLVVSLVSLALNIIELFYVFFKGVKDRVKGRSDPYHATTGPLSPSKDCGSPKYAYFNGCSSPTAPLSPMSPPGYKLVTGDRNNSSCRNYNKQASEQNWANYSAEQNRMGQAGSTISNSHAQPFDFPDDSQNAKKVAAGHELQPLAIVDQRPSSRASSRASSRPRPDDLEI
UniProt P17302: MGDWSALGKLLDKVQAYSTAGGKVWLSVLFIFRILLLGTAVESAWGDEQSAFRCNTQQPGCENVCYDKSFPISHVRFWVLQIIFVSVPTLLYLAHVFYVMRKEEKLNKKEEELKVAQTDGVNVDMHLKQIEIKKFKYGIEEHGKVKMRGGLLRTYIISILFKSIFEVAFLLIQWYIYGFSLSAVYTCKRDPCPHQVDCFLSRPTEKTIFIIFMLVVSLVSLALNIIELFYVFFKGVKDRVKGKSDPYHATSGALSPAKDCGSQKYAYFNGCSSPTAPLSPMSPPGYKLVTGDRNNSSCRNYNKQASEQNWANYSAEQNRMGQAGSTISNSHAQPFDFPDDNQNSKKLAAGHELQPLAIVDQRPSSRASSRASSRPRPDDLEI

[2] = molecular target: T1, TMEM43 (endogenous, mouse brain) (mouse (endogenous in mouse brain)); experiment: proximity ligation
[3] = molecular target: T2, TMEM43 (human, expressed in the heterologous expression system) (human) (UniProt Q9BTV4); experiment: co-IP
T2 sequence: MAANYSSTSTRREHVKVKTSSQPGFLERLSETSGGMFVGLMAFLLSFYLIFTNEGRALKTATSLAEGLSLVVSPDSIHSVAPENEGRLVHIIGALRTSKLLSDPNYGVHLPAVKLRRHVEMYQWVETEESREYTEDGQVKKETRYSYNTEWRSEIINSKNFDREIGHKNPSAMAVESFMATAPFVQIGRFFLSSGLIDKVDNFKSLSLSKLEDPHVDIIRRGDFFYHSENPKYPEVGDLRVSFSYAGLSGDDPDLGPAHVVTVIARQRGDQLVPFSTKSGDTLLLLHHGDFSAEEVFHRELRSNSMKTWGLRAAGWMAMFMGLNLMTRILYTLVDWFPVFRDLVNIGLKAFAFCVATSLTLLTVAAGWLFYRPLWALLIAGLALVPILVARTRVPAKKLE

| binding [1] | binding [2] | Substance | binding [3] |
| --- | --- | --- | --- |
| binds | binds | Connexin 43 (endogenous, mouse brain) (from UniProt P23242 1-382) | – |
| – | – | Connexin 43 (expressed in the heterologous expression system) (from UniProt P17302 1-382) | binds |

— doi:10.1101/2022.11.08.515259
